Data on one compound can be found in patent US8367328B2, “Method for synthesizing DNA” (Takara Bio Inc., priority 1998, dated 2013).

The structures appear in SMILES notation.

For one series, the system named is ExTaq DNA Polymerase. The series is described as follows: PCR with ExTaq DNA Polymerase in the presence of cationic complexes. It counts as biochemical. An excerpt: Using hexaamminecobalt (III) chloride ([Co(NH3)6]Cl3) (manufactured by Sigma), tris(ethylenediamine)cobalt (III) chloride ([Co(C2H8N2)3]Cl3) (manufactured by Aldrich), or tris(ethylenediamine)rhodium (III) trichloride•trihydrate ([Rh(C2H8N2)3]Cl3.3H2O) (manufactured by Aldrich), the effects on the amplification reaction by various kinds of DNA polymerases were examined. As the DNA polymerases, TaKaRa Taq DNA Polymerase (hereinafter referred to as “Taq DNA Polymerase” manufactured by Takara Shuzo Co., Ltd.), Pyrobest DNA Polymerase (manufactured by Takara Shuzo Co., Ltd.) and Ex Taq DNA Polymerase (manufactured by Takara Shuzo Co., Ltd.) were used.
A reaction mixture comprising Escherichia coli JM109 genomic DNA as a template, primers Eco1 and Eco2 as a primer pair, and DNA polymerase was prepared, and PCR was carried out. The compositions of the reaction mixture for each enzyme are as follows.
a reaction mixture comprising 5 μl of 10-fold concentrated buffer for TaKaRa ExTaq DNA Polymerase (manufactured by Takara Shuzo Co., Ltd.), 0.2 mM each of dATP, dCTP, dGTP and dTTP, 100 pg of Escherichia coli JM109 genomic DNA, 1.25 U of TaKaRa EX-Taq DNA Polymerase, and 10 pmol each of primers Eco1 and Eco2 (a final volume being 50 μl). […]

For a further series, the system named is Pyrobest DNA Polymerase. The series is described as follows: PCR with Pyrobest DNA Polymerase in the presence of cationic complexes. It counts as biochemical, Pyrococcus sp.

On to `N.N.N.N.N.N.[Cl-].[Cl-].[Cl-].[Co+3]` [[Co(NH3)6]Cl3, hexaamminecobalt (III) chloride], for which the “Reaction time period as fraction of that of no addition” value was “about ⅘” in the series on ExTaq DNA Polymerase (50 μM) and “about ⅗” in the series with Pyrobest DNA Polymerase (100 μM). Further, the “Time Period Required (for same amount of amplified product)” value turned out to be 2294 s in the series with ExTaq DNA Polymerase (50 μM complex added, 98°C 5 s–68°C 40 s, 30 cycles (no addition: 60 s, 30 cycles, 2953 s)) and 2953 s with Pyrobest DNA Polymerase (100 μM complex added, 98°C 5 s–68°C 60 s, 30 cycles (no addition: 120 s, 31 cycles, 4911 s)).
